Results: patent US20180112001A1
No constants are given. Whether binding was seen depends on the method and setting. Some results given as binding are weak or reduced against the parent protein; the word gives no strength.

Protein sequences, listed by entry. Tags and fused reporters are not part of them. Lines headed by an entry give the natural chain unless they say otherwise; changes in a name come on top. Residues count along the entry.
UniProt P07766: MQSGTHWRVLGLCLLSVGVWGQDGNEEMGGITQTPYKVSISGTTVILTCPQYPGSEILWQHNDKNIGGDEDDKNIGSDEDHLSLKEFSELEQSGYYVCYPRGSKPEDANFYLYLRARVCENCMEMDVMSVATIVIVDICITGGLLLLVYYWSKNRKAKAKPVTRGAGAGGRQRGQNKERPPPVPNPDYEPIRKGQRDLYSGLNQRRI
UniProt Q95LI5, residues 22-198: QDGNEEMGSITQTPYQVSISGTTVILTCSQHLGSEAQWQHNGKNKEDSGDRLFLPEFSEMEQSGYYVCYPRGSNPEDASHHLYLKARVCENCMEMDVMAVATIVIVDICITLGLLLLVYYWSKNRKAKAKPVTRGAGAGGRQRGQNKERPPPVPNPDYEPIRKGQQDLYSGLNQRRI

Tests used:
[1] = molecular target: human CD3 on cells (Jurkat cells, human T cells) (human) (UniProt P07766); assay: FACS assays
[2] = molecular target: cynomolgus monkey CD3 on cynomolgus T cells (cynomolgus monkey) (UniProt Q95LI5); assay: FACS assays

- binding [1]: binds
- binding [2]: binds
B1: CD3-VH-G (anti-CD3 antibody engineered to contain only germline frameworks) (antibody, V domains shown)
VH: EVQLVESGGGLVQPGRSLRLSCAASGFTFDDYSMHWVRQAPGKGLEWVSGISWNSGSKGYADSVKGRFTISRDNAKNSLYLQMNSLRAEDTALYYCAKYGSGYGKFYHYGLDVWGQGTTVTVSS
VL: DIQMTQSPSSLSASVGDSVTITCRASQSINNYLNWYQQKPGKAPKLLIYTASSLLSGVPSRFSGSGSGTDFTLTISGLHPEDFATYFCQQSFSTPPITFGQGTRLDIK
